# Laboratory results from article PMC4207488.
# Protein sequences, listed by entry. Tags and fused reporters are not part of them.
# UniProt Q03940: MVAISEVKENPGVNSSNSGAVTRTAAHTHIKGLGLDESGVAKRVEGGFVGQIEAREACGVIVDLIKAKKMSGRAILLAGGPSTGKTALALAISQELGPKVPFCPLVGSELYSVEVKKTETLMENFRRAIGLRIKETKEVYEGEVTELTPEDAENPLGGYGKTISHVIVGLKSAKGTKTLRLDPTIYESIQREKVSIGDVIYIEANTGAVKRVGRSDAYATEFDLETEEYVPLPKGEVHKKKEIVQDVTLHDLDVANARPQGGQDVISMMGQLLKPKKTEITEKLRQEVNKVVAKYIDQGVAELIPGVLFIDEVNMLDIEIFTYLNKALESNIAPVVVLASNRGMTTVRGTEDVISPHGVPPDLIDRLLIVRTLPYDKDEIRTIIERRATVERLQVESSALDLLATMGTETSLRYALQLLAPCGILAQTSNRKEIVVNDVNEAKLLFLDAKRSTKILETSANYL
# UniProt Q12464: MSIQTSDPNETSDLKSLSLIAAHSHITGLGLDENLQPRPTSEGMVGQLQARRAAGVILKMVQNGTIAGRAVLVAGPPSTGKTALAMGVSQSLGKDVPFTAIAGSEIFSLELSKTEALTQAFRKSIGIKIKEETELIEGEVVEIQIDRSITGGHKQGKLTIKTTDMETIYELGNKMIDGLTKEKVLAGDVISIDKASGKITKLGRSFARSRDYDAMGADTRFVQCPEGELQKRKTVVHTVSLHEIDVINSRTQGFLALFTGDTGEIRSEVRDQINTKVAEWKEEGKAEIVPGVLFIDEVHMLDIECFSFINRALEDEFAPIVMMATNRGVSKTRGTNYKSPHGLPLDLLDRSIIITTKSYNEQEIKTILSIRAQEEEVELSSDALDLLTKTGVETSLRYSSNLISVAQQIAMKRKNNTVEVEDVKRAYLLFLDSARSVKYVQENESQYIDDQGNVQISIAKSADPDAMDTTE
# No constants are given. Whether binding was seen depends on the method and setting. In cells and extracts the contact can be indirect. Here binding means that the protein was enriched with, or labelled near, the bait; the list need not be complete. Tags and fused reporters may be left off the sequences shown.
# Biological target: T1, Tap-tagged Not5 (S. cerevisiae) (UniProt Q12514)
# T1 sequence: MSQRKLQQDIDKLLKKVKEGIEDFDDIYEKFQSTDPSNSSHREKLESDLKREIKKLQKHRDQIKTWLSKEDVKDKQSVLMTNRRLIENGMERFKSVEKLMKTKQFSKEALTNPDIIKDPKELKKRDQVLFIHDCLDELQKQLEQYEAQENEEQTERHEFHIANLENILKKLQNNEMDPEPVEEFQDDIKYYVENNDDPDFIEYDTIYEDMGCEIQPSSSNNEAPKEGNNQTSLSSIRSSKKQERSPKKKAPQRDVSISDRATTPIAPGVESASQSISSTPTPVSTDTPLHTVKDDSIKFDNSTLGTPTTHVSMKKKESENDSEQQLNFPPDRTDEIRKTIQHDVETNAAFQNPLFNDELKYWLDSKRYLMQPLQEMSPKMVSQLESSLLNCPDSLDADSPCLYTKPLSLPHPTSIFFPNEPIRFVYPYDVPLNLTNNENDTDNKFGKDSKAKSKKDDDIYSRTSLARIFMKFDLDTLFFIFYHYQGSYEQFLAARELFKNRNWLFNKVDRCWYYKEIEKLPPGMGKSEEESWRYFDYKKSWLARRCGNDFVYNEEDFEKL
# Test: affinity purification with mass spectrometry; Tap-tagged Not5 purified, purified proteins on a native gel stained with Coomassie, the entire lane cut in slices and analysed by LC/MS/MS
row,binding,Substance
1,binds,Rvb1 (from UniProt Q03940 1-463)
2,binds,Rvb2 (from UniProt Q12464 1-471)
